# The supplement of paper PMC5949888
# Most values lie at the floor of the assay. Slopes are relative: functional sequences can read slightly below zero.
# System: Saccharomyces cerevisiae PS128 hsf1 delta, HSF1(1-493) fusion
# Assay: growth estimate (transactivation domain function in HSF1 fusion, heat-shock survival) (a.u. (slope of normalised read count over time)); higher = stronger growth at 37°C, i.e. more transactivation activity
# Settings: library: random library
row,Substance,growth estimate
1,TWLLVSARGEHLTEVEDLEC,< -0.25
2,TPIRRRPLFGTWGAYGVA,< -0.25
3,DTHARGKHRSTTRAARQVMM,< -0.25
4,KSPYD,< -0.25
5,TKLHTKDLLKRGPGHQS,< -0.25
6,EMRMVLCTAEVVN,-0.243
7,QRSSNWNLYPLILLLCPGPV,< -0.25
8,SMYQLTETLHSTA,< -0.25
9,HGDGSVF,< -0.25
10,NPPFVRRPTPRTRHFRCPAR,< -0.25
11,AAREGITYTQQFCSVFGYWL,-0.151
12,LGQLDTLRWTRWRGISDERI,< -0.25
13,SCIPLKICMGWRSPEVTVKV,< -0.25
14,YVYR,< -0.25
15,VLRYPGKGPHRRGKASNSNV,< -0.25
16,NDVSKEARGALCGQKGLGIS,< -0.25
17,QRSCVVGSVSDYE,< -0.25
18,ISGRHSV,< -0.25
19,FCTRMG,< -0.25
20,RDVRISCTQLVDESFRLS,< -0.25
21,GLQHGRDIRTGETVN,< -0.25
22,IVSCRMGTAKALGREVLGGS,< -0.25
23,AWDVT,< -0.25
24,QLIVQERSYSRDVRAVPRPS,< -0.25
25,VLTRKEEGNKTPYRVCIPYA,< -0.25
26,QRGMSTWLRVSI,< -0.25

# Part of the list above, tab-delimited.
row	Substance	growth estimate
2	TPIRRRPLFGTWGAYGVA	< -0.25
10	NPPFVRRPTPRTRHFRCPAR	< -0.25
15	VLRYPGKGPHRRGKASNSNV	< -0.25
18	ISGRHSV	< -0.25

# Reformatted with tabs: entries from further up.
row	Substance	growth estimate
24	QLIVQERSYSRDVRAVPRPS	< -0.25
25	VLTRKEEGNKTPYRVCIPYA	< -0.25

# (next part)

row,Substance,growth estimate
1,EFEYIAAVRVLGGCGR,< -0.25
2,TMPPFGHLSLLKSWLKILSP,< -0.25
3,IPHAPILNGTSLPLLFVKPG,< -0.25
4,SLAAPVES,< -0.25
5,MPVILRRKLGRSRI,< -0.25
6,WVP,< -0.25
7,ESQDLSNNFSSHWSPPRRKA,< -0.25
8,RGYTELICCSPMGVFSLLVY,< -0.25
9,LCPQNFGNVVASTDPCSQLW,-0.112
10,PKAGDCALSWPGSYSSWPKL,< -0.25
11,RRVDRFCLMVSCCVMGLRAA,< -0.25
12,TGAV,< -0.25
13,ASLCHACLDQPLAHDSLATL,< -0.25
14,ESLRSPVYDECEVWTI,< -0.25
15,HTGCGSRKQANGHTRWSSAR,< -0.25
16,AGSKRIQPAVSDKIHFVKSR,< -0.25
17,CVPASELGPGPASISTVIRD,< -0.25
18,FSLLLMGPQSSARADRDVEA,< -0.25
19,ACIYEQIGRFWLSGLTRRGD,< -0.25
20,RQLMWGRLLISELVLPRGGI,< -0.25
21,RQVLADKLHGILGGVCEGTG,< -0.25
22,WPAHHLTQLWCIVVSEGLPR,-0.172
23,PILSAVVSRPVGTFCMRRCQ,< -0.25
24,KVQGSDTDVTRGTQPPSHLN,< -0.25
25,PHRYQRGAGGLTVLLLRLSE,< -0.25
26,YISILITPILERVGLSIALP,< -0.25

row,Substance,growth estimate
1,DWETFRP,< -0.25
2,DSEGRAQDYI,< -0.25
3,TRGIRPRLWAKADVGYFLLL,< -0.25
4,CWRPPRLSEPVMQKFAAWDS,< -0.25
5,PDPECNGETEMDGQCGDSGD,< -0.25
6,RAIHPFQIRLFSDFPGGHPL,-0.203
7,GKDRQGRMSHKKCFCGLIRI,< -0.25
8,HARKSRRVTTVVNNSLTKR,< -0.25
9,LTIDESRY,< -0.25
10,QPGVLVLFWCPALVTLQRRT,< -0.25
11,GLYGLPYFRRAIQTNRAGML,< -0.25
12,WPSAQHTPSLATR,-0.0341
13,HGSPTGALRFFNPLMFGGCI,< -0.25
14,YTIRARVDNRLTHFVFAVPL,< -0.25
15,VDYQILCDNTQSGVEGGLRS,< -0.25
16,TALLVTGIVDRYWCLGPFTG,< -0.25
17,PTPGSKYRAIAISG,< -0.25
18,CWKGTCIGKDIVHGIGRTGS,< -0.25
19,AVEGFGANKPSFCAPSSSQG,< -0.25
20,LSALFCLCQYR,< -0.25
21,WCCS,< -0.25
22,MIEAGRSPVASTYVWDLGNY,< -0.25
23,VCLLRKPSVQVKSAMGTDPS,< -0.25
24,AGRGLPRGF,< -0.25
